# Among all 390,000 compounds or so, about 4,000 (1%) were called active. Inconclusive means that the source gave no clear call. Such entries were picked first, then a sample of the others. Calls follow the shape of the dose curve; as a rule, active = well fitted inhibition curve with a large enough effect; inconclusive = small, poorly fitted or top-dose-only effect, or another doubt; inactive = no such curve, though single readings can be large or run the other way. A potency beside an inconclusive call is a rough fit, not a confirmed value.
# The chains behind the UniProt entries cited, without tags or fusion partners. Where a name states a change or a piece, a line headed by the entry shows the natural chain unless it says otherwise.
# UniProt Q9UNA4: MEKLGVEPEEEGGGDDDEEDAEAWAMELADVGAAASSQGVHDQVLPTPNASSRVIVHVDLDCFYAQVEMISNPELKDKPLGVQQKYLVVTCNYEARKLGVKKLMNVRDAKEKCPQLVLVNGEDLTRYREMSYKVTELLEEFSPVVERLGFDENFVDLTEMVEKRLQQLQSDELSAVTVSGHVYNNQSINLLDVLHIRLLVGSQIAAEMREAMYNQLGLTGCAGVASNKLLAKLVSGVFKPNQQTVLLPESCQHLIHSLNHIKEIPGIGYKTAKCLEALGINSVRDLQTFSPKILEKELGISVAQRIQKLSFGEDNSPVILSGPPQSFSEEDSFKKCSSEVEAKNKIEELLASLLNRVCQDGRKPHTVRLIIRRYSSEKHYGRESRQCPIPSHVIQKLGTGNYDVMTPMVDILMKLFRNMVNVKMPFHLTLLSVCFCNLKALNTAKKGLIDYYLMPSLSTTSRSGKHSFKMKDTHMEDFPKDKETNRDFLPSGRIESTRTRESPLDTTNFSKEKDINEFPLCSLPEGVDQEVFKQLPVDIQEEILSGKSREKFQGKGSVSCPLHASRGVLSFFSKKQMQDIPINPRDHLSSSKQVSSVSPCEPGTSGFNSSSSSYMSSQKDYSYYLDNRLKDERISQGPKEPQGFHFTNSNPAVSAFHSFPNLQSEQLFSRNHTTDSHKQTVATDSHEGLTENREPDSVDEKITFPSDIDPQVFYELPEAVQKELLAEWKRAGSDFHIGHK
# Target: DNA polymerase iota (Homo sapiens) (UniProt Q9UNA4)
# Assay: qHTS for Inhibitors of Polymerase Iota
# Details: Pol iota fluorescent replication assay, 10 min; series mostly up to 115 µM; activity, negative = inhibition: at the top concentration
# Summary of the method: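 Fluorescent replication assay read twice, at 0 min and 10 min after adding 50 nM (final) substrate. Enzyme (10 nM) and compounds were first incubated 15 min at room temperature; enzyme-free buffer wells were negative controls.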
# Potency is read from the fitted curve at half-maximal effect.
Structure (SMILES),Potency,"activity, negative = inhibition"
Cc1ccc(S(=O)(=O)N2CCN(c3nc(-c4ccc(C)s4)nc4ccccc34)CC2)cc1,"inconclusive: 50.1 µM [inhibitor, partial curve, poor fit]",
Cc1ccc(Cl)cc1N1CCN(c2nc3ccccc3c3nc(-c4cccnc4)nn23)CC1,,inactive: -14.3%
Cc1ccc(C(=O)O)cc1NC(=O)c1nsc2ccccc12,"inconclusive: 89.1 µM [inhibitor, partial curve, poor fit]",
CC(=O)c1ccc[n+](C(C)CCC(C)[n+]2cccc(C(C)=O)c2)c1 (stereo not given),,inactive: 64%
O=C1/C(=C\c2ccc(O)c(O)c2)N=C2CCCCCN12,"inconclusive: 20 µM [inhibitor, full curve, poor fit]",
CCOc1ccc(NC(=O)CSc2nnnn2C2CCCC2)cc1,"inconclusive: 79.4 µM [inhibitor, single point]",
COCCn1c(C)cc(C(=O)CSc2ccc3ccccc3n2)c1C,"inconclusive: 8.91 µM [inhibitor, full curve, poor fit]",
O=C(O)C1CCC(Cn2c(SCc3cc(=O)n4cc(Cl)ccc4n3)nc3ccsc3c2=O)CC1 (stereo not given),"inconclusive: 70.8 µM [inhibitor, partial curve]",
CCOc1ccc(S(=O)(=O)NCCSCc2ccco2)cc1,"inconclusive: 7.08 µM [inhibitor, full curve, poor fit]",
CCCCS/C(N)=N/N=C/c1cc(C)ccc1O,"inconclusive: 7.08 µM [inhibitor, partial curve, poor fit]",
O=C(Cc1cccs1)Nc1nnc(SCC(=O)NC2CCCCC2)s1,"inconclusive: 100 µM [inhibitor, partial curve, poor fit]",
COc1ccc(C2CCN(Cc3cccnc3)CC2O)cc1 (stereo not given),"inconclusive: 112 µM [inhibitor, partial curve, poor fit]",
Cc1ccccc1NS(=O)(=O)c1ccc2[nH]cc(C(=O)NCCc3ccccc3)c(=O)c2c1,"inconclusive: 89.1 µM [inhibitor, single point]",
O=C1CCCc2oc3ccc(NS(=O)(=O)c4cccc5cccnc45)cc3c21,"inconclusive: 28.2 µM [inhibitor, partial curve, poor fit]",
N/C(Cc1ccc(Cl)cc1)=N\OC(=O)c1ccccc1,"inconclusive: 39.8 µM [inhibitor, single point]",
C#CCOCCOCCOCCNc1nc(N2CCOCC2)nc(N2CCN(C(=O)CCCCCCCCCCNC(=O)[C@@H](CCSC)n3cc(CCO)nn3)CC2)n1,"inconclusive: 20 µM [inhibitor, partial curve, poor fit]",
COCCN1C(=O)/C(=C2/C(=O)N(CC(=O)Nc3ccccc3Cl)c3ccccc32)SC1=S,,inactive: 28.5%
O=C(O)CSc1cc(C(=O)c2cc(F)ccc2O)cn2c(=O)c3c(-c4ccccc4)csc3nc12,"inconclusive: 89.1 µM [inhibitor, partial curve, poor fit]",
Cc1cc(C)n(-c2nc3ccccc3nc2Nc2ccc3[nH]c(=O)[nH]c3c2)n1,"inconclusive: 50.1 µM [inhibitor, partial curve]",
CCCSC1=N/C(=C\c2ccc([N+](=O)[O-])o2)C(=O)S1,"inconclusive: 2.82 µM [inhibitor, full curve, poor fit]",

# A different layout for some results above:
Structure (SMILES)	Potency	activity, negative = inhibition
O=C1/C(=C\c2ccc(O)c(O)c2)N=C2CCCCCN12	inconclusive: 20 µM [inhibitor, full curve, poor fit]	
CCCCS/C(N)=N/N=C/c1cc(C)ccc1O	inconclusive: 7.08 µM [inhibitor, partial curve, poor fit]	
CCCSC1=N/C(=C\c2ccc([N+](=O)[O-])o2)C(=O)S1	inconclusive: 2.82 µM [inhibitor, full curve, poor fit]	

# (continued)

Structure (SMILES),Potency,"activity, negative = inhibition"
CC(=O)c1cccc(NS(=O)(=O)c2ccc3[nH]c4c(c3c2)CCCCC4)c1,"inconclusive: 89.1 µM [inhibitor, single point]",
CCCN1CCN(C(=O)Cn2ncc3ccccc32)CC1,active: 39.8 µM,
O=C1NC(c2ccccc2)=C(c2nc3ccccc3s2)C(c2ccccc2)N1 (stereo not given),"inconclusive: 44.7 µM [inhibitor, partial curve]",
COc1ccc2nc3cc(Cl)ccc3c(Nc3ccc(O)c(CN4CCN(C)CC4)c3)c2c1,"inconclusive: 44.7 µM [inhibitor, partial curve]",
O=C(O)Cc1sc(Nc2cccc3ccccc23)nc1-c1ccc(Cl)cc1,,inactive: 178%
Cc1cccc(C(=O)N/N=C/c2ccoc2)c1,"inconclusive: 79.4 µM [inhibitor, partial curve, poor fit]",
CCOC(=O)c1sc2nccc(N(C)C)c2c1N=CNOCc1c(F)cccc1Cl,"inconclusive: 3.16 µM [inhibitor, full curve, poor fit]",
NC(=O)[C@H](Cc1cc2ccccc2s1)NC(=O)[C@@H]1CC2(CC(c3cccc(NC(=O)[C@@H]4CCC(=O)N4)c3)=NO2)CN1C(=O)/C=C/c1c(F)cccc1Cl (stereo not given in full),"inconclusive: 11.2 µM [inhibitor, partial curve, poor fit]",
Cc1occc1C(=O)Nc1ccccc1NC(=O)c1ccoc1C,"inconclusive: 25.1 µM [inhibitor, partial curve]",
C=CCn1c(SCC(=O)Nc2ccc(C(=O)OCC)cc2)nnc1-c1cccs1,"inconclusive: 28.2 µM [inhibitor, full curve, poor fit]",
Cc1noc(C)c1COc1ccccc1C(=O)N(C)Cc1ccc(C(C)(C)C)cc1,"inconclusive: 22.4 µM [inhibitor, full curve, poor fit]",
COc1ccc(N(CC(C)C)S(=O)(=O)c2nnc(NC(=O)c3ccco3)s2)cc1,"inconclusive: 56.2 µM [inhibitor, partial curve, poor fit]",
CC(C)(C)c1ccc(OCC(=O)NCc2ccco2)cc1,"inconclusive: 79.4 µM [inhibitor, partial curve]",
COCCOc1cc(NCc2ccccc2)c2ncn(C(C)C)c2c1,"inconclusive: 14.1 µM [inhibitor, partial curve, poor fit]",
CC(Sc1ccsc1[N+](=O)[O-])C(=O)N1CCN(c2ccccn2)CC1 (stereo not given),"inconclusive: 50.1 µM [inhibitor, partial curve, poor fit]",
CCCNC(=O)Cn1nc(-c2ccc(C)cc2)c2cnc3ccc(CC)cc3c21,"inconclusive: 89.1 µM [inhibitor, partial curve, poor fit]",
COC(=O)c1ccccc1NC(=S)NC(=O)c1ccccc1,"inconclusive: 14.1 µM [inhibitor, full curve, poor fit]",
CCCc1n[nH]c(=S)n1Cc1ccco1,"inconclusive: 8.91 µM [inhibitor, partial curve, poor fit]",
CC(C)Cn1c(CN2CCN(c3cccc(Cl)c3)CC2)nc2c1c(=O)[nH]c(=O)n2C,,inactive: 24%
CCOc1ncccc1C(=O)Nc1cc(C(F)(F)F)ccc1N1CCOCC1,"inconclusive: 10 µM [inhibitor, partial curve, poor fit]",

Structure (SMILES),Potency,"activity, negative = inhibition"
CNC(=O)c1csc(Cc2c(Cl)sc3ccc(Cl)cc23)n1,"inconclusive: 28.2 µM [inhibitor, single point]",
NC(Cc1ccccc1)C(O)c1ccco1 (stereo not given),,inactive: 21.1%
C=CCc1c(C)nc(-c2ccccc2)nc1N/N=C(\C)c1ccc(N)cc1,"inconclusive: 89.1 µM [inhibitor, single point]",
O=C(COC(=O)c1ccccc1OC(F)F)Nc1ccc2[nH]c(=O)[nH]c2c1,"inconclusive: 28.2 µM [inhibitor, partial curve, poor fit]",
COCCCNC(=O)CCCn1c(=O)c2ccccc2n(CC(=O)Nc2ccc(C)cc2Cl)c1=O,"inconclusive: 89.1 µM [inhibitor, partial curve, poor fit]",
Cc1[nH]c(C)c(S(=O)(=O)NCCc2ccc(S(N)(=O)=O)cc2)c1C(=O)N1CCCC1,,inactive: 6.87%
COc1ccc(-c2c(C(F)(F)F)nn(C)c2NC(C)=O)cc1,,inactive: 51.5%
COc1ccccc1N=c1oc2cc(O)ccc2cc1C(=O)NCC1CCCO1 (stereo not given),,inactive: -47.6%
O=C(CCN1CCN(CCO)CC1)Nc1ccc(C2CCCC2)cc1,"inconclusive: 25.1 µM [inhibitor, partial curve]",
CCOc1ccc(-c2c(C)nn3c(C)c(C(=O)NCCN(C)C)cnc23)cc1OCC,"inconclusive: 39.8 µM [inhibitor, single point]",
O=C1c2ccccc2-c2cc([N+](=O)[O-])c([N+](=O)[O-])cc21,active: 2.24 µM,
C[C@H](NC(=O)[C@@H]1CSC2c3ccccc3C(=O)N21)C(=O)NCCc1ccc(F)cc1 (stereo not given in full),"inconclusive: 10 µM [inhibitor, partial curve, poor fit]",
N#Cc1ccc(OCc2nnc(SCC(=O)c3ccccc3)n2-c2ccccc2)cc1,"inconclusive: 39.8 µM [inhibitor, single point]",
Cc1cc2c(cc1C)N(C(=O)CCl)CCN2C(=O)CCl,,inactive: 22.7%
CCc1cccc(NC(=O)C2CCCN2S(=O)(=O)c2ccc3nc(-c4ccccc4)[nH]c3c2)c1 (stereo not given),"inconclusive: 79.4 µM [inhibitor, partial curve]",
CN1C(=O)Cc2cc(S(=O)(=O)NCc3ccccc3Cl)ccc21,"inconclusive: 89.1 µM [inhibitor, partial curve, poor fit]",
CC(C)CNC(=O)C(=O)Nc1cc2c3c(c1)CCC(=O)N3CCC2,"inconclusive: 1.58 µM [inhibitor, partial curve, poor fit]",
O=C1CN(C(=O)COC(=O)C2CC(=O)N(Cc3ccco3)C2)c2ccccc2N1 (stereo not given),"inconclusive: 15.8 µM [inhibitor, full curve, poor fit]",
O=C(OCC(=O)N(Cc1ccccc1)Cc1ccccc1)c1ccccc1NCCO,"inconclusive: 3.98 µM [inhibitor, partial curve, poor fit]",
CCc1ccc(-c2nnn(Cc3nc4ccccc4s3)n2)cc1,"inconclusive: 17.8 µM [inhibitor, partial curve]",

# — PubChem BioAssay AID588590 (National Center for Advancing Translational Sciences (NCATS), 2011)
